A negative result means that nothing was seen under these conditions. At least one verdict was read from the data and is not stated in words by the source. Tags and fusion partners may be left off the protein sequences shown.
Target: T1, P. miniata Hop1 CBR R480A (GST) (Patiria miniata) (UniProt A0A913ZKG6)
T1 sequence (looked up): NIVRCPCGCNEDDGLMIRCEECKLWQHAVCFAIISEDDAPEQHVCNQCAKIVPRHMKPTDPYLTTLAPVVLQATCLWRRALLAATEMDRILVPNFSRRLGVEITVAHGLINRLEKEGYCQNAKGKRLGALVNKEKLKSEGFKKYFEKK
Experiment: fluorescence polarization
Settings: FP: 20 mM Tris-HCl pH 8, 100 mM Na glutamate, 5 mM MgCl2, 3% glycerol, 0.5 mM BME, 50 nM DNA, 4 C 30 min; recombinant protein; residues 352-499; protein details: N-terminal His6-GST (uncleaved); label: 5' 6-FAM on strand 1

“CTTATATCTGAATAGTCAGT (double strand) [20-bp FAM duplex]”: no binding.
